From the supplement of paper PMC10849652
Some of the results follow.

Protein sequences, listed by entry. Tags and fused reporters are not part of them. Lines headed by an entry give the natural chain unless they say otherwise; changes in a name come on top.
UniProt Q8TCG2: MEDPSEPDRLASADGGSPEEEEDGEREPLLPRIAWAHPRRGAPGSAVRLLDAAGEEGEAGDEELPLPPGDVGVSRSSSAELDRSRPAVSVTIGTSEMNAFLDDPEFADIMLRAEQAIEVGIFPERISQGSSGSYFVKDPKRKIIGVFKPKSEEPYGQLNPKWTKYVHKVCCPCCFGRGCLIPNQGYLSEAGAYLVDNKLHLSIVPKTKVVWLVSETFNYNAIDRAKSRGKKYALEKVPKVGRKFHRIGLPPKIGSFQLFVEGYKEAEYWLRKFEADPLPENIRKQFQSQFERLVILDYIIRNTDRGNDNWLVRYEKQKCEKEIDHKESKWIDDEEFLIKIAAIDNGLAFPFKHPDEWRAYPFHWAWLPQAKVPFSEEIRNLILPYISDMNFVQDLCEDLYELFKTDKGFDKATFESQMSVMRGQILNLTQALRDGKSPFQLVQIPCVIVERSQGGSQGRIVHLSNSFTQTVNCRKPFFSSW
UniProt Q9UG56: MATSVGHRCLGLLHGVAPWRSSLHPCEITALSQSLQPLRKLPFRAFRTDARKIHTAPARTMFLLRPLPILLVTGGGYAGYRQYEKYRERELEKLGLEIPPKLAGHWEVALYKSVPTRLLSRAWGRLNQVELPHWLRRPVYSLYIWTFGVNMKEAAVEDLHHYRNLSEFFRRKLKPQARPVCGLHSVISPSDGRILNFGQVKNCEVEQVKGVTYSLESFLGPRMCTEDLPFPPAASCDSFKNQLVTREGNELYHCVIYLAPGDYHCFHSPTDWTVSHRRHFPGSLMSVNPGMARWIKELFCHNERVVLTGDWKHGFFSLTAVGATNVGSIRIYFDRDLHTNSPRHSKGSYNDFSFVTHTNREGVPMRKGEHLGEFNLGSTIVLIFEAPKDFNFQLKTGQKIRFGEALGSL
UniProt P78356: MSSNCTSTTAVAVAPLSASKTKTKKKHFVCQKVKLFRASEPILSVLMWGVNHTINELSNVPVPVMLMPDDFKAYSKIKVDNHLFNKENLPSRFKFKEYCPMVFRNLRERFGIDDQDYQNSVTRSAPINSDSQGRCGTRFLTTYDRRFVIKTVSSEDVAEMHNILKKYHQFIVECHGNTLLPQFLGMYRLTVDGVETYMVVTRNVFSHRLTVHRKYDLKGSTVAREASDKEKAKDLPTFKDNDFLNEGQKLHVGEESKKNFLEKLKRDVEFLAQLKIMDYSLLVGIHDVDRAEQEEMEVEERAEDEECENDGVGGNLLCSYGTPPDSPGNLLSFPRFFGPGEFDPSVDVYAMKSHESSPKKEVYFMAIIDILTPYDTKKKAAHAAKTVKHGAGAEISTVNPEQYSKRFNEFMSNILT
UniProt Q8TCD6: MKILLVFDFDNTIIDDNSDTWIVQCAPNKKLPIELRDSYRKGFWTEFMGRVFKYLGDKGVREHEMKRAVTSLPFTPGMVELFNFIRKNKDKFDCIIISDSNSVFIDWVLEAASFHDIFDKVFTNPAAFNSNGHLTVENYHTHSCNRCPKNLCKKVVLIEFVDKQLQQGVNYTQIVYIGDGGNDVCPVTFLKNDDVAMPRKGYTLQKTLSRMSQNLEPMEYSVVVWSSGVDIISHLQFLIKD
UniProt Q86UU1: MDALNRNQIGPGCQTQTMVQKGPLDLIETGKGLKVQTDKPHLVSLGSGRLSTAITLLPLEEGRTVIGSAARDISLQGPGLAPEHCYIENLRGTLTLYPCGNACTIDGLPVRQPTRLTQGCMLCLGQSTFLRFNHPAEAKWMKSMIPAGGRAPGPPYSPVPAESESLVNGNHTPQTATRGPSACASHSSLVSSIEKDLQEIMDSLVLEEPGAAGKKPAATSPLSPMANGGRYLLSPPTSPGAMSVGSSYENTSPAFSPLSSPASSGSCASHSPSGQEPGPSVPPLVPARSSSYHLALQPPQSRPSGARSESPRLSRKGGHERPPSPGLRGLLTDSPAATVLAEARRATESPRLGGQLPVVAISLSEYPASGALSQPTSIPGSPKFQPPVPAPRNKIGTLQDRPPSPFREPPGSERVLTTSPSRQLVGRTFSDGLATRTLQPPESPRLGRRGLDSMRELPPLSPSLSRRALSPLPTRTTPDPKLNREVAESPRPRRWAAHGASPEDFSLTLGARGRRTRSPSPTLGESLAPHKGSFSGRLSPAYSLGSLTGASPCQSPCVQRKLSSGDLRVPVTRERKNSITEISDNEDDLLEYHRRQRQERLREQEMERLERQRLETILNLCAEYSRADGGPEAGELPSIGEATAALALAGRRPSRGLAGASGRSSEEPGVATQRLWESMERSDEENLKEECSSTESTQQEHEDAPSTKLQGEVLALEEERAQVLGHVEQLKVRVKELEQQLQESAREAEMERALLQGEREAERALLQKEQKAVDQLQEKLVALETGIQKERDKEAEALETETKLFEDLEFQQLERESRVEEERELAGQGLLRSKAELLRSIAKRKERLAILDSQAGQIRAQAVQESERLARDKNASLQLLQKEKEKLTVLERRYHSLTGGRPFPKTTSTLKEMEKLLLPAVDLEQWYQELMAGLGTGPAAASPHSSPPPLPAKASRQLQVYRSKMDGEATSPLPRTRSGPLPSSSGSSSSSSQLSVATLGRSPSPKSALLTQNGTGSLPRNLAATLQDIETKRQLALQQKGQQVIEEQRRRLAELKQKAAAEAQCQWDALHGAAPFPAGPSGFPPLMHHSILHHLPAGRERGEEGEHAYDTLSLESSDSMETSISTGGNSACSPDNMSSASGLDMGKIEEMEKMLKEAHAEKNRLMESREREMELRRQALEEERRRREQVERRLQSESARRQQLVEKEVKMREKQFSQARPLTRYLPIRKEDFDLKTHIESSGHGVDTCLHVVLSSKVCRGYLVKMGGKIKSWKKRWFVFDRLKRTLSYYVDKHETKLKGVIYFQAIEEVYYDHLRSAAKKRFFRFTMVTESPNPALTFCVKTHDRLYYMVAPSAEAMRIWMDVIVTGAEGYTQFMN
UniProt P48426: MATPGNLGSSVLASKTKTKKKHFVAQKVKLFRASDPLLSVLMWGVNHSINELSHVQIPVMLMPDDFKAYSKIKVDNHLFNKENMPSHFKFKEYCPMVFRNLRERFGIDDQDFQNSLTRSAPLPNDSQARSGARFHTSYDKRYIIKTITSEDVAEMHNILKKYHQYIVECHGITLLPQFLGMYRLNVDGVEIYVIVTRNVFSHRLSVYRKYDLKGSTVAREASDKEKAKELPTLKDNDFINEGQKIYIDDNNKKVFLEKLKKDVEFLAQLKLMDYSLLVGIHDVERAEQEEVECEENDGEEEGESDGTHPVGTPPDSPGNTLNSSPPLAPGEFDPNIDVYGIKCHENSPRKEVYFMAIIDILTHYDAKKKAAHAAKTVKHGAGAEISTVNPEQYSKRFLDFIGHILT
UniProt Q9Y237, whole entry, looked up: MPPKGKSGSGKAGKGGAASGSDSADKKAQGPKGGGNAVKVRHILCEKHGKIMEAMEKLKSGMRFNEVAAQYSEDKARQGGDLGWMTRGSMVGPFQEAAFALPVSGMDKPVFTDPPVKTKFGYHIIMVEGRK
UniProt O00264: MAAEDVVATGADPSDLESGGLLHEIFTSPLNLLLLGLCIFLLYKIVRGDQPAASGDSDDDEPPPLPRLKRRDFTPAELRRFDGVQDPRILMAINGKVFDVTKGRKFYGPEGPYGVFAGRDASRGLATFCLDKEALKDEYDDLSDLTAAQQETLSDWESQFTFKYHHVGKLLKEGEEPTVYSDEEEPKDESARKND
UniProt O43164: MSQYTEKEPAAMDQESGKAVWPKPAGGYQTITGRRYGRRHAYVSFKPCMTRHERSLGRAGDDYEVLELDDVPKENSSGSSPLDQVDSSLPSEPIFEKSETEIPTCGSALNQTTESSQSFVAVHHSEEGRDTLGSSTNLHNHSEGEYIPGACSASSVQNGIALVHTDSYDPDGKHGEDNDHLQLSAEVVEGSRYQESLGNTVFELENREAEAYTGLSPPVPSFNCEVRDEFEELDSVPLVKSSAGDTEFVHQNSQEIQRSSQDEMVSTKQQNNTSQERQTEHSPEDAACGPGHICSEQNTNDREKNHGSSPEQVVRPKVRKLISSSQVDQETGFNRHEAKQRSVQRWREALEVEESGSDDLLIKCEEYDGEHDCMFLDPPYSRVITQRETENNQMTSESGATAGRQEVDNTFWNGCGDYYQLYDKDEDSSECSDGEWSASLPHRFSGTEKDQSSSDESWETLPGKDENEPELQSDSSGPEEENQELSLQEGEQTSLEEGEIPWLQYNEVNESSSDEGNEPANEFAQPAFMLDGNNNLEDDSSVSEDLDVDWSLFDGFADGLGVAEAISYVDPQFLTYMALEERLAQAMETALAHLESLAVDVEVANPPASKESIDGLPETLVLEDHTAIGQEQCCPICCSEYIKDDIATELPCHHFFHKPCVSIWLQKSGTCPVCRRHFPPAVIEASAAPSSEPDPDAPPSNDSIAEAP
UniProt Q9Y2I7: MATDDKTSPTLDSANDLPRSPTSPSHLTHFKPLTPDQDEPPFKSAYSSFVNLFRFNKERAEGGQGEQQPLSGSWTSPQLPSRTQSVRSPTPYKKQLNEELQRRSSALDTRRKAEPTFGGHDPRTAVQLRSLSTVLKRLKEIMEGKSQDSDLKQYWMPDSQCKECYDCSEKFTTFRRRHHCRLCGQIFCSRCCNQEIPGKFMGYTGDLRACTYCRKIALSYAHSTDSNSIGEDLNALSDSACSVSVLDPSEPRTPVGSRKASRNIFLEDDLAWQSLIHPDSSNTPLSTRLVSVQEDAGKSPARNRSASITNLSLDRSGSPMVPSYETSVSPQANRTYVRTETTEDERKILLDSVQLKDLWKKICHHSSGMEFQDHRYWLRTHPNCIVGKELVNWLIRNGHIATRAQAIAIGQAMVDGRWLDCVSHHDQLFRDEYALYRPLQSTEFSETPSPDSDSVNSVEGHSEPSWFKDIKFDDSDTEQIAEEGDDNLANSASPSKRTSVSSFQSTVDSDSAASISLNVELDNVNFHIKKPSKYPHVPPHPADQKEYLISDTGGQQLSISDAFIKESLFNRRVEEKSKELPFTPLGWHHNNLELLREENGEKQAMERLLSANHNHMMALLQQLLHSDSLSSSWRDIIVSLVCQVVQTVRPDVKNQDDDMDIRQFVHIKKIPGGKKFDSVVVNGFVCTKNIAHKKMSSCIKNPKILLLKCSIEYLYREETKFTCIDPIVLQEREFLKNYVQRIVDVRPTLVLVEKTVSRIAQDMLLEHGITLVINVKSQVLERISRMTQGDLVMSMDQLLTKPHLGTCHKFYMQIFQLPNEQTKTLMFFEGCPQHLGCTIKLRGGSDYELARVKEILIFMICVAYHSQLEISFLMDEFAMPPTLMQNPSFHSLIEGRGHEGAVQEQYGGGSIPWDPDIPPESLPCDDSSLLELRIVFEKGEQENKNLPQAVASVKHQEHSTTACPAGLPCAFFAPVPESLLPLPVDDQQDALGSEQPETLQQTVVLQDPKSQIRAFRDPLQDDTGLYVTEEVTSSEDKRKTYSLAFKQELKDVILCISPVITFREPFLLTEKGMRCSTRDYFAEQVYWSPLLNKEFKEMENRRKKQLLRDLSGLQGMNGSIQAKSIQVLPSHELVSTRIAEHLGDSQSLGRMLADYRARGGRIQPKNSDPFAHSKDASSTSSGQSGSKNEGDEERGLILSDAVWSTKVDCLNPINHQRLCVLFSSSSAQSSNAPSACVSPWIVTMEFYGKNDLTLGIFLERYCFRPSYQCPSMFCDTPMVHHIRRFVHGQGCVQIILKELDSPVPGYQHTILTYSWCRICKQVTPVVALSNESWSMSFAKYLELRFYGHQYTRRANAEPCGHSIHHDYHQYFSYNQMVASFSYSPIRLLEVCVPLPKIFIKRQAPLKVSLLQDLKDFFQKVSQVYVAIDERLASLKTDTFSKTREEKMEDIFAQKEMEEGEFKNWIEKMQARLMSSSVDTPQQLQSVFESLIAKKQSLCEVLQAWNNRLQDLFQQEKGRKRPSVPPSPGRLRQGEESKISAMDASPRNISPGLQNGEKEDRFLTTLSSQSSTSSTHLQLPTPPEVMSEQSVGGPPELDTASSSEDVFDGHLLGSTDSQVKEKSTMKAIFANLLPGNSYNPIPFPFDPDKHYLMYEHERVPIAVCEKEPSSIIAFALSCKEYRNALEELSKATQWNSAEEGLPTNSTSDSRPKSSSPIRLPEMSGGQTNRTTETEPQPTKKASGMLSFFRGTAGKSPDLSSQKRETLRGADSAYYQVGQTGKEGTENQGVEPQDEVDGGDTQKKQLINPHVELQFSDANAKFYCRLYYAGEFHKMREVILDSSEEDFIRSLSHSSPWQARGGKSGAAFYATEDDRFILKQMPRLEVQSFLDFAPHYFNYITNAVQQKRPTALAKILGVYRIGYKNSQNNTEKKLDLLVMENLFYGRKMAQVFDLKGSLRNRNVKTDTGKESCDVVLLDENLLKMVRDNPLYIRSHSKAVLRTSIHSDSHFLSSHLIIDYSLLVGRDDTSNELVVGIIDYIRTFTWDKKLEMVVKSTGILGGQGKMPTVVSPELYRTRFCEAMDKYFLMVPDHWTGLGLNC

How the values were obtained:
Assay in all cases: log2 fold change, soluble protein after heating vs DMSO (PISA); higher = thermal stabilisation; K562 lysate, 10 uM; active = over 0.2 and 3.5 SD of the protein, either way, in both replicates (recomputed)
[1] = compound: CS(=O)(=O)CCNCc1ccc(-c2ccc3ncnc(Nc4ccc(OCc5cccc(F)c5)c(Cl)c4)c3c2)o1 [lapatinib]
Summary of the method: (§1)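 K562 pellets were dounce-homogenised in PBS pH 7.4 containing 1 mM MgCl2, and the crude extract, at 1 mg/mL protein, was exposed to 10 μM compound for 30 min. Aliquots were heated for 3 min across 48°C-58°C, pooled, brought to 0.5% NP-40 at 4°C and spun at 21,000xg for 90 min, with the supernatant taken as soluble protein. TMTpro 16plex LC-MS/MS with equalised channel sums quantified that protein. Values are log-two fold changes in thermal stability relative to solvent controls, taken from duplicates.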

[2] = compound: CS(=O)(=O)N1CCN(Cc2cc3nc(-c4cccc5[nH]ncc45)nc(N4CCOCC4)c3s2)CC1 [pictilisib]
Summary of the method: as §1

[3] = compound: C[C@@H](Oc1cc(-c2cnn(C3CCNCC3)c2)cnc1N)c1c(Cl)ccc(F)c1Cl [crizotinib]
Summary of the method: as §1

[4] = compound: C[C@H](C1=CC=C(C=C1)C(=O)NC2=C3C=CNC3=NC=C2)N
Summary of the method: as §1

[5] = compound: C[C@H](Nc1ncnc2nc[nH]c12)c1cc2cccc(Cl)c2c(=O)n1-c1ccccc1 [duvelisib]
Summary of the method: as §1

[6] = compound: Cc1cc(Nc2cc(CN3CCOCC3)c3nc(C)c(Cc4ccc(Cl)cc4F)n3n2)n[nH]1 [gandotinib]
Summary of the method: as §1

[7] = compound: Cc1cc(Nc2cc(N3CCN(C)CC3)nc(Sc3ccc(NC(=O)C4CC4)cc3)n2)n[nH]1 [tozasertib]
Summary of the method: as §1

[8] = compound: Cc1ccc(-n2nc(C(C)(C)C)cc2NC(=O)Nc2ccc(OCCN3CCOCC3)c3ccccc23)cc1 [doramapimod]
Summary of the method: as §1

[9] = compound: Cc1ccc(NC(=O)c2ccc(CN3CC[C@H](N(C)C)C3)c(C(F)(F)F)c2)cc1Nc1nccc(-c2cncnc2)n1 [bafetinib]
Summary of the method: as §1

[10] = compound: Cc1cccc(CC(=O)N2CCc3c2ccc(-c2cn(C)c4ncnc(N)c24)c3F)n1
Summary of the method: as §1

Row | Target | log2 fold change [1] | log2 fold change [2] | log2 fold change [3] | log2 fold change [4] | log2 fold change [5] | log2 fold change [6] | log2 fold change [7] | log2 fold change [8] | log2 fold change [9] | log2 fold change [10]
1 | PI4K2B (UniProt Q8TCG2) | inactive: 0.009 | inactive: 0.039 | inactive: -0.203 | inactive: 0.134 | inactive: 0.143 | inactive: 0.041 | inactive: 0.019 | inactive: -0.026 | inactive: -0.017 | inactive: 0.003
2 | PLD1 (UniProt Q13393) | inactive: -0.008 | inactive: -0.001 | inactive: -0.053 | inactive: -0.158 | inactive: -0.035 | inactive: 0.061 | inactive: 0.025 | inactive: 0 | inactive: -0.021 | inactive: 0.095
3 | PLEKHA5 isoform 6 (UniProt Q9HAU0) | inactive: 0.003 | inactive: -0.054 | inactive: 0.006 | inactive: -0.033 | inactive: -0.032 | inactive: 0.093 | inactive: 0.002 | inactive: -0.028 | inactive: -0.061 | inactive: 0.002
4 | PGM3 isoform 4 (UniProt O95394) | inactive: -0.011 | inactive: 0 | inactive: -0.011 | inactive: 0.028 | inactive: 0 | inactive: -0.042 | inactive: -0.003 | inactive: 0.011 | inactive: -0.006 | inactive: -0.042
5 | PISD (UniProt Q9UG56) | inactive: 0 | inactive: -0.016 | inactive: -0.124 | inactive: 0.037 | inactive: 0.032 | inactive: -0.072 | inactive: 0.055 | inactive: -0.086 | inactive: 0 | inactive: -0.092
6 | PLAA (UniProt Q9Y263) | inactive: -0.014 | inactive: -0.01 | inactive: -0.014 | inactive: -0.079 | inactive: 0.002 | inactive: 0.015 | inactive: 0.023 | inactive: 0 | inactive: -0.005 | inactive: 0.067
7 | PLBD1 (UniProt Q6P4A8) | inactive: 0.056 | inactive: 0.018 | inactive: -0.035 | inactive: -0.047 | inactive: 0.001 | inactive: 0.033 | inactive: 0.006 | inactive: 0 | inactive: 0.043 | inactive: 0.03
8 | PIP4K2B (UniProt P78356) | inactive: 0.033 | inactive: 0.044 | inactive: -0.019 | inactive: 0.01 | inactive: 0.006 | inactive: 0.029 | inactive: -0.029 | inactive: -0.001 | inactive: 0.164 | inactive: -0.067
9 | PHOSPHO2 (UniProt Q8TCD6) | inactive: -0.043 | inactive: 0.015 | inactive: -0.001 | inactive: -0.063 | inactive: -0.044 | inactive: -0.009 | inactive: -0.184 | inactive: -0.045 | inactive: -0.024 | inactive: -0.002
10 | PHLDB1 (UniProt Q86UU1) | inactive: -0.052 | inactive: 0.034 | inactive: -0.154 | inactive: -0.06 | inactive: -0.028 | inactive: 0.073 | inactive: -0.047 | inactive: 0.076 | inactive: -0.112 | inactive: 0.031
11 | PKLR (UniProt P30613) | inactive: -0.012 | inactive: -0.004 | inactive: 0.018 | inactive: -0.012 | inactive: 0.004 | inactive: 0.037 | inactive: -0.004 | inactive: -0.029 | inactive: 0 | inactive: 0.002
12 | PGP (UniProt A6NDG6) | inactive: 0.121 | inactive: -0.011 | inactive: 0.035 | inactive: -0.068 | inactive: -0.002 | inactive: 0.029 | inactive: 0.002 | inactive: -0.026 | inactive: 0.046 | inactive: -0.004
13 | PIP4K2A (UniProt P48426) | inactive: -0.04 | inactive: 0.032 | inactive: 0.019 | inactive: -0.089 | inactive: 0.05 | inactive: 0.109 | inactive: 0.014 | inactive: -0.035 | active: 0.301 | inactive: 0.005
14 | PIN4 isoform 2 (UniProt Q9Y237) | inactive: -0.007 | inactive: 0 | inactive: 0.063 | inactive: -0.028 | inactive: 0.032 | inactive: 0.034 | inactive: 0.006 | inactive: 0.015 | inactive: 0.016 | inactive: -0.009
15 | PHB2 (UniProt Q99623) | inactive: -0.03 | inactive: -0.015 | inactive: 0.013 | inactive: -0.038 | inactive: -0.002 | inactive: 0.021 | inactive: 0.003 | inactive: -0.002 | inactive: 0.019 | inactive: 0.002
16 | PIP (UniProt P12273) | inactive: 0.434 | inactive: 0.379 | inactive: 0.065 | inactive: 0.564 | inactive: -0.081 | inactive: -0.338 | inactive: 0.45 | inactive: -0.118 | inactive: 0.22 | inactive: 0.197
17 | PLEKHF2 (UniProt Q9H8W4) | inactive: 0.036 | inactive: 0.013 | inactive: -0.073 | inactive: 0.008 | inactive: -0.093 | inactive: -0.019 | inactive: 0.04 | inactive: 0.034 | inactive: 0.062 | inactive: 0.017
18 | PIR (UniProt O00625) | inactive: 0.017 | inactive: -0.05 | inactive: 0.019 | inactive: 0.099 | inactive: -0.035 | inactive: -0.058 | inactive: -0.008 | inactive: -0.021 | inactive: 0.008 | inactive: -0.006
19 | PGRMC1 (UniProt O00264) | inactive: 0.001 | inactive: -0.023 | inactive: 0.057 | inactive: -0.011 | inactive: -0.024 | inactive: 0.047 | inactive: 0.035 | inactive: -0.052 | inactive: 0.004 | inactive: 0.018
20 | PJA2 (UniProt O43164) | inactive: 0.019 | inactive: -0.007 | inactive: -0.046 | inactive: -0.113 | inactive: 0.033 | inactive: 0.045 | inactive: -0.084 | inactive: 0.019 | inactive: -0.031 | inactive: 0.054
21 | PIKFYVE (UniProt Q9Y2I7) | inactive: -0.039 | inactive: -0.06 | inactive: -0.002 | inactive: -0.058 | inactive: -0.013 | inactive: 0.01 | inactive: -0.014 | inactive: 0.029 | inactive: -0.053 | inactive: 0.066
22 | PKP3 isoform 2 (UniProt Q9Y446) | inactive: -0.007 | inactive: -0.004 | inactive: 0.043 | inactive: -0.024 | inactive: -0.048 | inactive: 0.04 | inactive: -0.039 | inactive: 0.08 | inactive: -0.085 | inactive: 0.027
23 | PIBF1 (UniProt Q8WXW3) | inactive: 0.089 | inactive: -0.014 | inactive: 0.002 | inactive: -0.078 | inactive: 0.001 | inactive: -0.012 | inactive: 0.07 | inactive: -0.007 | inactive: 0.025 | inactive: 0.118
24 | PIGT, A0A1W2PP13 | inactive: -0.06 |  |  |  |  |  |  |  |  | 
25 | PLEKHF1 (UniProt Q96S99) | inactive: -0.022 | inactive: -0.016 | inactive: -0.021 | inactive: -0.043 | inactive: 0.058 | inactive: 0.023 | inactive: 0.02 | inactive: 0.016 | inactive: 0.013 | inactive: 0.026
26 | PGK1 (UniProt P00558) | inactive: -0.014 | inactive: 0.004 | inactive: 0.031 | inactive: 0.063 | inactive: -0.012 | inactive: -0.032 | inactive: -0.018 | inactive: -0.024 | inactive: 0.01 | inactive: -0.024
27 | PLCG1 isoform 2 (UniProt P19174) | inactive: 0.01 | inactive: -0.006 | inactive: -0.078 | inactive: -0.075 | inactive: 0.013 | inactive: 0.052 | inactive: 0.079 | inactive: 0.014 | inactive: -0.043 | inactive: 0.079
28 | PIEZO1 (UniProt Q92508) | inactive: -0.018 | inactive: 0.003 | inactive: 0.014 | inactive: -0.012 | inactive: -0.02 | inactive: 0.027 | inactive: 0.009 | inactive: -0.011 | inactive: 0.009 | inactive: 0.031

Part of the list above in a different format.

| Row | Target | log2 fold change [1] | log2 fold change [2] | log2 fold change [3] | log2 fold change [4] | log2 fold change [5] | log2 fold change [6] | log2 fold change [7] | log2 fold change [8] | log2 fold change [9] | log2 fold change [10] |
| --- | --- | --- | --- | --- | --- | --- | --- | --- | --- | --- | --- |
| 2 | PLD1 (UniProt Q13393) | inactive: -0.008 | inactive: -0.001 | inactive: -0.053 | inactive: -0.158 | inactive: -0.035 | inactive: 0.061 | inactive: 0.025 | inactive: 0 | inactive: -0.021 | inactive: 0.095 |
| 3 | PLEKHA5 isoform 6 (UniProt Q9HAU0) | inactive: 0.003 | inactive: -0.054 | inactive: 0.006 | inactive: -0.033 | inactive: -0.032 | inactive: 0.093 | inactive: 0.002 | inactive: -0.028 | inactive: -0.061 | inactive: 0.002 |
| 4 | PGM3 isoform 4 (UniProt O95394) | inactive: -0.011 | inactive: 0 | inactive: -0.011 | inactive: 0.028 | inactive: 0 | inactive: -0.042 | inactive: -0.003 | inactive: 0.011 | inactive: -0.006 | inactive: -0.042 |
| 5 | PISD (UniProt Q9UG56) | inactive: 0 | inactive: -0.016 | inactive: -0.124 | inactive: 0.037 | inactive: 0.032 | inactive: -0.072 | inactive: 0.055 | inactive: -0.086 | inactive: 0 | inactive: -0.092 |
| 6 | PLAA (UniProt Q9Y263) | inactive: -0.014 | inactive: -0.01 | inactive: -0.014 | inactive: -0.079 | inactive: 0.002 | inactive: 0.015 | inactive: 0.023 | inactive: 0 | inactive: -0.005 | inactive: 0.067 |
| 7 | PLBD1 (UniProt Q6P4A8) | inactive: 0.056 | inactive: 0.018 | inactive: -0.035 | inactive: -0.047 | inactive: 0.001 | inactive: 0.033 | inactive: 0.006 | inactive: 0 | inactive: 0.043 | inactive: 0.03 |
| 8 | PIP4K2B (UniProt P78356) | inactive: 0.033 | inactive: 0.044 | inactive: -0.019 | inactive: 0.01 | inactive: 0.006 | inactive: 0.029 | inactive: -0.029 | inactive: -0.001 | inactive: 0.164 | inactive: -0.067 |
